Binding data for 3 molecules are collected here from article PMC5637259.

Results are given in words; binding and its absence hold for the method and conditions named. Binding seen in cells or lysates may run through a third protein. Some results given as binding are weak or reduced against the parent protein; the word gives no strength. Sequences can lack the tags named with a protein.

Holding throughout (experiment): co-IP; 293T cells co-transfected, lysed 48 h later in RIPA buffer (50 mM Tris-HCl pH 7.4, 150 mM NaCl, 1% NP40, 10% glycerol); 1 mg extract with anti-Flag antibody and protein A/G agarose at 4 °C overnight; Western blot
In general terms: A western blot detects proteins with antibodies after separation by electrophoresis.

One experiment concerns the target T1, Flag-KHSRP-K87R (human) (UniProt Q92945).
T1 sequence: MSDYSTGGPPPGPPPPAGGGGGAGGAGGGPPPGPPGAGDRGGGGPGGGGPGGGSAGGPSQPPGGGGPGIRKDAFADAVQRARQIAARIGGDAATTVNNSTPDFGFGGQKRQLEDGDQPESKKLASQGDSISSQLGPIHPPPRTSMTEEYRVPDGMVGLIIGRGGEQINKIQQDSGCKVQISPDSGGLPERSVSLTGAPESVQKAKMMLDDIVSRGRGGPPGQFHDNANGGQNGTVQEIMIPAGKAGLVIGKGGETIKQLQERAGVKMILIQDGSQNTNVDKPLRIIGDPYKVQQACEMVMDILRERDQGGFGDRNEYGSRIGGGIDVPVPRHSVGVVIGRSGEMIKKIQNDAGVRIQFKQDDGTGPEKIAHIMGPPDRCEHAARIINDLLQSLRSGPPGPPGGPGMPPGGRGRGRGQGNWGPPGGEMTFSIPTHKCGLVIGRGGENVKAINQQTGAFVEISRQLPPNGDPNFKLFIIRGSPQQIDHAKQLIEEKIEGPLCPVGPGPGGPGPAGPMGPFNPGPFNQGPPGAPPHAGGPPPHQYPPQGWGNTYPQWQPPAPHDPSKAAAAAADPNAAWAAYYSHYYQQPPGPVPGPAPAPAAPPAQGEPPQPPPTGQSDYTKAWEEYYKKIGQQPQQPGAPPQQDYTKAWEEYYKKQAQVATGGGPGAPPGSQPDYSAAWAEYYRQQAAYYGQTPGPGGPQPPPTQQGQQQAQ

In the next experiment the target is T2, Flag-KHSRP-WT (human) (UniProt Q92945).
T2 sequence: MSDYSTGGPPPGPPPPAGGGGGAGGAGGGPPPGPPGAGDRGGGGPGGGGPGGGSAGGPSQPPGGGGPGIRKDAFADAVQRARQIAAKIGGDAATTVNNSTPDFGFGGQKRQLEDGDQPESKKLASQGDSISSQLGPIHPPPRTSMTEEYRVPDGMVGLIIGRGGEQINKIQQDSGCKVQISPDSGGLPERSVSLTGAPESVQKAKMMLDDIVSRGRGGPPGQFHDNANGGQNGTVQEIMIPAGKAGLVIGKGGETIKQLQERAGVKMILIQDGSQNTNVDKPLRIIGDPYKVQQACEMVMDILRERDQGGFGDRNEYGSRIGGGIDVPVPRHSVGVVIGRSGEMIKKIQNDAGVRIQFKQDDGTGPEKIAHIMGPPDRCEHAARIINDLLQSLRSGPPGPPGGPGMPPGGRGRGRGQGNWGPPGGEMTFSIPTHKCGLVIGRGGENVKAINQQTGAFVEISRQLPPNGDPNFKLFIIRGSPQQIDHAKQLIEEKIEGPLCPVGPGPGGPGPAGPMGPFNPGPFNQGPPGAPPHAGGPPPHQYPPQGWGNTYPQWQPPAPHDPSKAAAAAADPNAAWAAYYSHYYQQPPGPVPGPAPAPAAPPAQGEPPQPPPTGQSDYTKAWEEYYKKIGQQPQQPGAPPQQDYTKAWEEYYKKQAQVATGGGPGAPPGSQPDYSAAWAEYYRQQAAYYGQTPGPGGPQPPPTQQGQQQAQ

For another experiment, the target named is T3, Flag-DGCR8 (UniProt Q8WYQ5).
T3 sequence: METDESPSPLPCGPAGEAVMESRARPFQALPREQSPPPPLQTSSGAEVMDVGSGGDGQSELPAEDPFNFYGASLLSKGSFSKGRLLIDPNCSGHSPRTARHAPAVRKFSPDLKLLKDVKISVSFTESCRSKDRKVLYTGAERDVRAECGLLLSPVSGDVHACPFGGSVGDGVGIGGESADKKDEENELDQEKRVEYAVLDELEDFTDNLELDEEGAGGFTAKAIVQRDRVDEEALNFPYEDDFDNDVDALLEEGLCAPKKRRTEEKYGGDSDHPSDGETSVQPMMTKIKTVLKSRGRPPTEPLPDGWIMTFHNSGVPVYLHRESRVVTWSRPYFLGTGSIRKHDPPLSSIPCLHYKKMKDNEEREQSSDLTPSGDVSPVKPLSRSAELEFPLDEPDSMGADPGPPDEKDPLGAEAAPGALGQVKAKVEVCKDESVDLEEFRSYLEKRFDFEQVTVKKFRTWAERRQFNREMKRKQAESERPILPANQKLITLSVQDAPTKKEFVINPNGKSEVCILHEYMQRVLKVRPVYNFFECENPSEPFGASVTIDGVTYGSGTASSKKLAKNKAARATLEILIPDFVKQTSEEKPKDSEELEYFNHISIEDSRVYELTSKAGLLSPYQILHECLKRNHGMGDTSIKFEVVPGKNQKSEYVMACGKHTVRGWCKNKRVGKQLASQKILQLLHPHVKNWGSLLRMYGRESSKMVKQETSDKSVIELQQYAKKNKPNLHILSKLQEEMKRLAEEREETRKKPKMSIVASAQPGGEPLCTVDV

B1: HA-Drosha (enzyme, UniProt Q9NRR4 1-1374)
chain: MMQGNTCHRMSFHPGRGCPRGRGGHGARPSAPSFRPQNLRLLHPQQPPVQYQYEPPSAPSTTFSNSPAPNFLPPRPDFVPFPPPMPPSAQGPLPPCPIRPPFPNHQMRHPFPVPPCFPPMPPPMPCPNNPPVPGAPPGQGTFPFMMPPPSMPHPPPPPVMPQQVNYQYPPGYSHHNFPPPSFNSFQNNPSSFLPSANNSSSPHFRHLPPYPLPKAPSERRSPERLKHYDDHRHRDHSHGRGERHRSLDRRERGRSPDRRRQDSRYRSDYDRGRTPSRHRSYERSRERERERHRHRDNRRSPSLERSYKKEYKRSGRSYGLSVVPEPAGCTPELPGEIIKNTDSWAPPLEIVNHRSPSREKKRARWEEEKDRWSDNQSSGKDKNYTSIKEKEPEETMPDKNEEEEEELLKPVWIRCTHSENYYSSDPMDQVGDSTVVGTSRLRDLYDKFEEELGSRQEKAKAARPPWEPPKTKLDEDLESSSESECESDEDSTCSSSSDSEVFDVIAEIKRKKAHPDRLHDELWYNDPGQMNDGPLCKCSAKARRTGIRHSIYPGEEAIKPCRPMTNNAGRLFHYRITVSPPTNFLTDRPTVIEYDDHEYIFEGFSMFAHAPLTNIPLCKVIRFNIDYTIHFIEEMMPENFCVKGLELFSLFLFRDILELYDWNLKGPLFEDSPPCCPRFHFMPRFVRFLPDGGKEVLSMHQILLYLLRCSKALVPEEEIANMLQWEELEWQKYAEECKGMIVTNPGTKPSSVRIDQLDREQFNPDVITFPIIVHFGIRPAQLSYAGDPQYQKLWKSYVKLRHLLANSPKVKQTDKQKLAQREEALQKIRQKNTMRREVTVELSSQGFWKTGIRSDVCQHAMMLPVLTHHIRYHQCLMHLDKLIGYTFQDRCLLQLAMTHPSHHLNFGMNPDHARNSLSNCGIRQPKYGDRKVHHMHMRKKGINTLINIMSRLGQDDPTPSRINHNERLEFLGDAVVEFLTSVHLYYLFPSLEEGGLATYRTAIVQNQHLAMLAKKLELDRFMLYAHGPDLCRESDLRHAMANCFEALIGAVYLEGSLEEAKQLFGRLLFNDPDLREVWLNYPLHPLQLQEPNTDRQLIETSPVLQKLTEFEEAIGVIFTHVRLLARAFTLRTVGFNHLTLGHNQRMEFLGDSIMQLVATEYLFIHFPDHHEGHLTLLRSSLVNNRTQAKVAEELGMQEYAITNDKTKRPVALRTKTLADLLESFIAALYIDKDLEYVHTFMNVCFFPRLKEFILNQDWNDPKSQLQQCCLTLRTEGKEPDIPLYKTLQTVGPSHARTYTVAVYFKGERIGCGKGPSIQQAEMGAAMDALEKYNFPQMAHQKRFIERKYRQELKEMRWEREHQEREPDETEDIKK
As to B1, the binding entry with Flag-KHSRP-K87R (human) and with Flag-KHSRP-WT (human) was “binds” throughout.

B2: HA-KHSRP-WT (protein, UniProt Q92945 1-711)
chain: MSDYSTGGPPPGPPPPAGGGGGAGGAGGGPPPGPPGAGDRGGGGPGGGGPGGGSAGGPSQPPGGGGPGIRKDAFADAVQRARQIAAKIGGDAATTVNNSTPDFGFGGQKRQLEDGDQPESKKLASQGDSISSQLGPIHPPPRTSMTEEYRVPDGMVGLIIGRGGEQINKIQQDSGCKVQISPDSGGLPERSVSLTGAPESVQKAKMMLDDIVSRGRGGPPGQFHDNANGGQNGTVQEIMIPAGKAGLVIGKGGETIKQLQERAGVKMILIQDGSQNTNVDKPLRIIGDPYKVQQACEMVMDILRERDQGGFGDRNEYGSRIGGGIDVPVPRHSVGVVIGRSGEMIKKIQNDAGVRIQFKQDDGTGPEKIAHIMGPPDRCEHAARIINDLLQSLRSGPPGPPGGPGMPPGGRGRGRGQGNWGPPGGEMTFSIPTHKCGLVIGRGGENVKAINQQTGAFVEISRQLPPNGDPNFKLFIIRGSPQQIDHAKQLIEEKIEGPLCPVGPGPGGPGPAGPMGPFNPGPFNQGPPGAPPHAGGPPPHQYPPQGWGNTYPQWQPPAPHDPSKAAAAAADPNAAWAAYYSHYYQQPPGPVPGPAPAPAAPPAQGEPPQPPPTGQSDYTKAWEEYYKKIGQQPQQPGAPPQQDYTKAWEEYYKKQAQVATGGGPGAPPGSQPDYSAAWAEYYRQQAAYYGQTPGPGGPQPPPTQQGQQQAQ
As for B2, the binding result with Flag-DGCR8 is listed as “binds”.

B3: HA-KHSRP-K87R (protein, UniProt Q92945 1-711)
chain: MSDYSTGGPPPGPPPPAGGGGGAGGAGGGPPPGPPGAGDRGGGGPGGGGPGGGSAGGPSQPPGGGGPGIRKDAFADAVQRARQIAARIGGDAATTVNNSTPDFGFGGQKRQLEDGDQPESKKLASQGDSISSQLGPIHPPPRTSMTEEYRVPDGMVGLIIGRGGEQINKIQQDSGCKVQISPDSGGLPERSVSLTGAPESVQKAKMMLDDIVSRGRGGPPGQFHDNANGGQNGTVQEIMIPAGKAGLVIGKGGETIKQLQERAGVKMILIQDGSQNTNVDKPLRIIGDPYKVQQACEMVMDILRERDQGGFGDRNEYGSRIGGGIDVPVPRHSVGVVIGRSGEMIKKIQNDAGVRIQFKQDDGTGPEKIAHIMGPPDRCEHAARIINDLLQSLRSGPPGPPGGPGMPPGGRGRGRGQGNWGPPGGEMTFSIPTHKCGLVIGRGGENVKAINQQTGAFVEISRQLPPNGDPNFKLFIIRGSPQQIDHAKQLIEEKIEGPLCPVGPGPGGPGPAGPMGPFNPGPFNQGPPGAPPHAGGPPPHQYPPQGWGNTYPQWQPPAPHDPSKAAAAAADPNAAWAAYYSHYYQQPPGPVPGPAPAPAAPPAQGEPPQPPPTGQSDYTKAWEEYYKKIGQQPQQPGAPPQQDYTKAWEEYYKKQAQVATGGGPGAPPGSQPDYSAAWAEYYRQQAAYYGQTPGPGGPQPPPTQQGQQQAQ
For the molecule B3, the binding entry with Flag-DGCR8 is “binds”.
